Experimental data as given in PubChem BioAssay AID2685 (National Center for Advancing Translational Sciences (NCATS), 2010).
Some of the results follow. The main result of the screen is listed elsewhere. These columns were measured beside it and carry no call. Most of these compounds were active or inconclusive in the main read-out, so they are no random draw. Words in brackets tell the shape of the fitted curve; partial curves, single points and poor fits give uncertain potencies.

Assay: qHTS Assay for Lipid Storage Modulators in Drosophila S3 Cells;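 on cell number change: cells counted by Cell Tracker Red CMTPX staining in the red channel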
Conditions: BODIPY lipid droplet fluorescence, 18-24 h; for cell number change: measured here: cell count max response, cells fed with added oleic acid
Procedure, shortened: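 Drosophila S3 cells loaded with oleic acid (400 uM, as added) and compounds at several concentrations; lipid droplets imaged by 488-nm laser-scanning cytometry, 500–530 nm intensity and object ratio to cell channel. Percent activity normalized to 20 uM Triacsin C.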

[1] = measured here: cell number channel AC50, cells fed with added oleic acid
[2] = measured here: lipid fluorescence (Fed channel) AC50, cells fed with added oleic acid

Row | SMILES | cell number change [%] | AC50 [1] | AC50 [2]
1 | O=c1n(-c2ccc(Br)cc2)cnn1-c1ncccc1[N+](=O)[O-] | -40.6 | 18.4 µM [falling, single point] | 
2 | c1ccc(CSc2nnc3c4ccccc4c4ccccc4c3n2)cc1 | 19 |  | 0.13 µM [rising, full curve, poor fit]
3 | COc1ccc(-c2oc(=O)c3cc(OC)c(OC)cc3c2/C=C/c2cccc([N+](=O)[O-])c2)cc1 | -7.96 |  | 0.146 µM [falling, full curve, poor fit]
4 | Cc1nn(Cc2ccccc2)c(Cl)c1C(=O)OC1CCOC1=O (stereo not given) | -9.85 |  | 
5 | O=C(CCSc1ccc(F)cc1)NNC(=O)c1ccccc1Cl | 3.98 |  | 
6 | COc1cccc(C(=O)N2CCN(Cc3cn[nH]c3-c3ccc(F)cc3F)CC2)c1 | 13 |  | 0.00411 µM [rising, full curve, poor fit]
7 | O=C(NC1CCCCC1)C(Cc1ccccc1)NS(=O)(=O)c1cccs1 (stereo not given) | -13.7 |  | 0.13 µM [falling, full curve, poor fit]
8 | COc1ccc(NC(=O)c2ccc3c(c2)C(=O)N(Cc2cccnc2)C3=O)cc1 |  |  | 6.51 µM [falling, single point]
9 | Cc1cc2nc(-c3ccc(SCC(=O)NC(C)C)nc3)[nH]c2cc1C |  | 0.13 µM [falling, full curve, poor fit] | 
10 | O=C1COc2ccc(S(=O)(=O)NCCc3ccccc3)cc2N1 | 5.65 |  | 0.651 µM [rising, full curve]
11 | COc1ccc(NC(=S)Nc2ccccc2C(F)(F)F)cc1 | -3.62 |  | 
12 | CN(C(=O)c1cccc(S(=O)(=O)N2CCCCC2)c1)C1CCS(=O)(=O)C1 (stereo not given) | 14.8 |  | 25.9 µM [falling, partial curve, poor fit]
13 | CCOC(=O)c1cc(-c2ccc(OC)cc2)nn1-c1ccc(C(=O)O)cc1 | 45.4 | 20.6 µM [rising, single point] | 18.4 µM [rising, partial curve]
14 | Cc1cc(=O)[nH]c(SCC(=O)Nc2ccc(F)c([N+](=O)[O-])c2)n1 | 60.6 |  | 
15 | CC(NC(=O)Nc1ccccc1O)(C(F)(F)F)C(F)(F)F | -11.9 |  | 0.651 µM [falling, full curve]
16 | CCc1cc2c(=O)nc3n(c2s1)Cc1ccccc1/C3=C(/O)c1ccc(F)cc1 | -87.9 | 20.6 µM [falling, single point] | 
17 | Cc1cc(=O)oc2cc(OCC(=O)Nc3ccc(F)cc3F)ccc12 | 24.5 | 2.59 µM [rising, full curve, poor fit] | 
18 | Cc1cccc(CC(C)NC(=O)CCc2nnc(CCCCc3ccccc3)o2)n1 (stereo not given) | 9.54 |  | 0.13 µM [rising, full curve, poor fit]
19 | O=C(Cn1cncn1)N/N=C/c1c2ccccc2cc2ccccc12 | -9.64 |  | 0.0058 µM [falling, full curve, poor fit]
20 | O=C(O)C1CCCN1S(=O)(=O)c1ccc(F)cc1 (stereo not given) | -11.1 |  | 0.461 µM [falling, full curve, poor fit]
21 | COc1ccc(N(CC(=O)Nc2ccc(S(=O)(=O)N3CCOCC3)cc2)S(=O)(=O)c2ccc(F)cc2)cc1 | -18.6 |  | 8.2 µM [falling, partial curve]

Row | SMILES | cell number change [%] | AC50 [1] | AC50 [2]
22 | C/C(N)=C(/C#N)C(=O)CSc1cc(C)c2ccccc2n1 | -47.7 |  | 
23 | Cc1ccc(-n2c(CNc3ccc(F)cc3)nnc2SCC(=O)N2CCCC2)cc1 | 153 |  | 
24 | Cc1c(N=C2SCC(=O)N2/N=C/c2ccccc2Cl)c(=O)n(-c2ccccc2)n1C |  | 0.731 µM [falling, full curve, poor fit] | 0.411 µM [falling, partial curve, poor fit]
25 | CCCCS(=O)(=O)N1CCN(S(=O)(=O)c2cccs2)CC1 | 15 |  | 
26 | CC1CCc2c(sc(NC(=O)c3ccco3)c2C(=O)O)C1 (stereo not given) | -7.14 |  | 
27 | COc1ccccc1N/C=C1/Sc2cc(Cl)ccc2NC1=O | 8.19 |  | 0.0058 µM [rising, full curve, poor fit]
28 | O=C(Cc1ccccc1[N+](=O)[O-])N1CCN(S(=O)(=O)c2ccccc2)CC1 | 16.4 | 6.51 µM [rising, single point] | 29.1 µM [rising, single point]
29 | CCN(CC(=O)Nc1ccc(NC(C)=O)cc1)C(=O)COc1ccccc1-c1ccccc1 | -18.3 | 0.00411 µM [falling, full curve, poor fit] | 
30 | CC1CCC(=NNC(=O)Cc2cccn2C)CC1 (stereo not given) |  | 0.58 µM [rising, full curve] | 
31 | COc1cc(/C=C2/C(=O)NN(c3ccc(C)c(Cl)c3)C2=O)cc([N+](=O)[O-])c1O | 13.6 |  | 
32 | CN1C(=O)N(CC(=O)N2CCN(c3ccccc3F)CC2)C(=O)C12CCCCC2 | -12.6 |  | 0.13 µM [falling, partial curve]
33 | Nc1nonc1-n1nnc(C(=O)N/N=C/c2ccc(OCc3ccccc3F)cc2)c1CN1CCCCC1 | 10.1 |  | 
34 | O=c1[nH]c2cc3c(cc2cc1CN(CCc1ccccc1)Cc1nnnn1CC1CCCO1)OCO3 (stereo not given) | 35.1 | 0.461 µM [rising, full curve] | 1.3 µM [rising, full curve]
35 | CC(C(=O)Nc1ccccc1Sc1ccccc1)N(c1ccccc1)S(C)(=O)=O (stereo not given) | 11.2 |  | 
36 | Cc1cc(C(=O)N2CCCC(CCC(=O)N3CCN(c4ccccn4)CC3)C2)c(C)o1 (stereo not given) | -27.4 |  | 18.4 µM [falling, single point]
37 | CCOc1cc(/C=N/NC(=O)CCn2nc(C)cc2C)ccc1O | 21.7 |  | 32.6 µM [rising, single point]
38 | CCc1ccc(CNCCSc2nnnn2C)cc1 |  | 6.51 µM [falling, single point] | 
39 | N#C/C(=C\Nc1ccc2c(c1)OCCO2)c1nc(-c2ccccc2)cs1 | 20.1 |  | 1.3 µM [rising, full curve]
40 | COc1ccc(N2C(=O)CSC23C(=O)N2CCCc4cccc3c42)cc1 (stereo not given) | 2.84 |  | 14.6 µM [rising, single point]
41 | CC1=C(C)CC(C(=O)NNC(=O)c2ccccc2O)C(C(=O)O)C1 (stereo not given) | -27.7 |  | 23.1 µM [falling, partial curve]
42 | O=C(Nc1cccnc1Cl)c1ccc(Cl)cc1 | 0.275 |  | 

16 entries from above, tab-delimited:
Row	SMILES	cell number change [%]	AC50 [1]	AC50 [2]
17	Cc1cc(=O)oc2cc(OCC(=O)Nc3ccc(F)cc3F)ccc12	24.5	2.59 µM [rising, full curve, poor fit]	
18	Cc1cccc(CC(C)NC(=O)CCc2nnc(CCCCc3ccccc3)o2)n1 (stereo not given)	9.54		0.13 µM [rising, full curve, poor fit]
19	O=C(Cn1cncn1)N/N=C/c1c2ccccc2cc2ccccc12	-9.64		0.0058 µM [falling, full curve, poor fit]
20	O=C(O)C1CCCN1S(=O)(=O)c1ccc(F)cc1 (stereo not given)	-11.1		0.461 µM [falling, full curve, poor fit]
21	COc1ccc(N(CC(=O)Nc2ccc(S(=O)(=O)N3CCOCC3)cc2)S(=O)(=O)c2ccc(F)cc2)cc1	-18.6		8.2 µM [falling, partial curve]
22	C/C(N)=C(/C#N)C(=O)CSc1cc(C)c2ccccc2n1	-47.7		
23	Cc1ccc(-n2c(CNc3ccc(F)cc3)nnc2SCC(=O)N2CCCC2)cc1	153		
24	Cc1c(N=C2SCC(=O)N2/N=C/c2ccccc2Cl)c(=O)n(-c2ccccc2)n1C		0.731 µM [falling, full curve, poor fit]	0.411 µM [falling, partial curve, poor fit]
25	CCCCS(=O)(=O)N1CCN(S(=O)(=O)c2cccs2)CC1	15		
26	CC1CCc2c(sc(NC(=O)c3ccco3)c2C(=O)O)C1 (stereo not given)	-7.14		
27	COc1ccccc1N/C=C1/Sc2cc(Cl)ccc2NC1=O	8.19		0.0058 µM [rising, full curve, poor fit]
28	O=C(Cc1ccccc1[N+](=O)[O-])N1CCN(S(=O)(=O)c2ccccc2)CC1	16.4	6.51 µM [rising, single point]	29.1 µM [rising, single point]
29	CCN(CC(=O)Nc1ccc(NC(C)=O)cc1)C(=O)COc1ccccc1-c1ccccc1	-18.3	0.00411 µM [falling, full curve, poor fit]	
30	CC1CCC(=NNC(=O)Cc2cccn2C)CC1 (stereo not given)		0.58 µM [rising, full curve]	
31	COc1cc(/C=C2/C(=O)NN(c3ccc(C)c(Cl)c3)C2=O)cc([N+](=O)[O-])c1O	13.6		
32	CN1C(=O)N(CC(=O)N2CCN(c3ccccc3F)CC2)C(=O)C12CCCCC2	-12.6		0.13 µM [falling, partial curve]

Additional records:

Row | SMILES | cell number change [%] | AC50 [1] | AC50 [2]
43 | COc1ccccc1OC(C)C(=O)O (stereo not given) | 92.9 |  | 20.6 µM [rising, partial curve]
44 | Nc1nnc(CC(=O)NCc2ccccc2)s1 | -16.9 | 0.82 µM [falling, full curve, poor fit] | 
45 | CC1CC(C)CN(CCCNC(=O)CN2C(=O)c3cccnc3Oc3ccccc32)C1 (stereo not given) | -10.5 | 0.326 µM [falling, full curve, poor fit] | 6.51 µM [falling, single point]
46 | COc1ccc(Cn2c(=O)[nH]c3cc(C(=O)N4CCN(c5ccc(OC)cc5)CC4)ccc3c2=O)cc1 | 19.2 |  | 29.1 µM [rising, single point]
47 | NC(=O)c1ccccc1NC(=O)COC(=O)C1(c2ccccc2)CC1 | -12.3 |  | 
48 | CCCCN(Cc1nc2ccccc2c(=O)[nH]1)C(=O)COc1ccc(F)cc1Cl | 0.735 | 0.103 µM [falling, full curve, poor fit] | 7.31 µM [rising, partial curve]
49 | Cn1c(Oc2ccc(F)cc2F)c(C=O)c2ccccc21 | 0.525 |  | 0.00517 µM [falling, full curve, poor fit]
50 | COc1cccc(-n2c(C)nc3c(cnn3-c3ccc(C)cc3)c2=O)c1 |  |  | 23.1 µM [rising, partial curve]
51 | Cc1ccc(S(=O)(=O)N(C)c2ccc(C(=O)NCC(c3ccco3)N(C)C)cc2)cc1 (stereo not given) |  |  | 6.51 µM [falling, partial curve, poor fit]
52 | O=Cc1cccn1-c1c(C(=O)O)cnn1-c1ccccc1 | -56.6 | 0.651 µM [falling, full curve] | 0.731 µM [falling, full curve]
53 | CCOC(=O)c1cc(C(=O)OCC)c2ccccn2c1=O | 12.2 | 0.651 µM [rising, single point] | 
54 | O=C(N/N=C/C(Br)=C/c1ccccc1)c1cc(-c2ccco2)[nH]n1 | -25.4 | 0.82 µM [falling, full curve, poor fit] | 0.0517 µM [falling, full curve, poor fit]
55 | Cn1c(SCC(=O)Nc2ccc3c(c2)CCC3)nnc1C1CC1 | -19.5 |  | 
56 | O=C(c1cccc(C(=O)N2CCN(c3ccc(F)cc3)CC2)c1)N1CCN(c2ccc(F)cc2)CC1 | -5.03 |  | 
57 | NS(=O)(=O)c1ccc(NC(=S)N2CCCC2)cc1 | 13.5 |  | 0.651 µM [rising, partial curve, poor fit]
58 | Cc1sc2nc(CN3CCCC3)nc(N3CCN(C(=O)c4ccco4)CC3)c2c1C |  |  | 1.84 µM [rising, single point]
59 | O=C(O)CCCC(=O)N1CCc2cc(S(=O)(=O)NCc3ccccc3)ccc21 |  |  | 18.4 µM [rising, single point]
60 | O=C(/C=C/c1cccc(Cl)c1)c1nc2ccccc2[nH]1 | -60.5 | 7.31 µM [falling, partial curve] | 5.8 µM [falling, full curve]
61 | CCCCCCOc1ccc(/C(C)=N/NC2=NCCN2)cc1 | -35.6 | 29.1 µM [falling, single point] | 16.4 µM [falling, single point]
62 | COc1ccccc1C(=O)NCC(=O)Nc1cccnc1 | -33.7 |  | 6.51 µM [rising, partial curve, poor fit]
